# Laboratory results taken from the supplement of paper PMC8256030.
# Where a name gives a salt, the structure may show the parent alone. This is one part of the list. Repeats in this data set agree poorly, so a single value says little.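 HEK293T cells were given each compound shortly before transfection with a reporter in which red mCherry is followed by the SARS-CoV-2 frameshift element and then GFP in the −1 frame, so GFP appears only after frameshifting.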
# Columns and labels:
# [1] = system: SARS-CoV-2 -1 PRF reporter mCherry-FSE-GFP(-1); test: mCherry (red) intensity as percent of control; higher = higher upstream reporter expression; settings: 10 µM; 24 h; HEK293T
# [2] = system: SARS-CoV-2 -1 PRF reporter mCherry-FSE-GFP(-1); test: percent effect, decrease of GFP/mCherry ratio (-1 PRF reporter) relative to controls; higher = stronger frameshift inhibition; settings: 10 µM; 24 h; HEK293T
Compound,mCherry [1] [%],percent effect [2] [%]
OCc1cc(C(O)CNCCCCCCOCCCCc2ccccc2)ccc1O (stereo not given) [salmeterol],33.9,-7.92
O=[N+]([O-])c1ccc(/C=N/O)o1 [nifuroxime],106,-3.33
CC(=O)NC1C(O)CC(O)(C(=O)O)OC1C(O)C(O)CO (stereo not given),123,-1.45
C[C@](N)(Cc1ccc(O)c(O)c1)C(=O)O,124,-4.25
NC(=O)c1ncn([C@@H]2O[C@H](CO)[C@@H](O)[C@H]2O)c1N [acadesine],100,1.02
NCCC(O)(P(=O)(O)O)P(=O)(O)O [pamidronic acid],96.8,-1.61
O=C(O)c1ccc(-n2nc(-c3ccccc3O)nc2-c2ccccc2O)cc1 [Exjade],102,-2.23
Cc1cccc(CN2CCN(C(c3ccccc3)c3ccc(Cl)cc3)CC2)c1 (stereo not given) [meclozine],98.8,-6.23
Cc1cnc(NC(=O)C2=C(O)c3ccccc3S(=O)(=O)N2C)s1 [meloxicam],93.2,-1.62
CC(C)CN(C[C@@H](OP(=O)(O)O)[C@H](Cc1ccccc1)NC(=O)O[C@H]1CCOC1)S(=O)(=O)c1ccc(N)cc1 [fosamprenavir],121,-5.33
O=C(O)c1c(O)c(-c2ccccc2)nc2ccccc12 [oxycinchophen],103,-0.246
CN1CCCCC1CCN1c2ccccc2Sc2ccc(S(C)(=O)=O)cc21 (stereo not given) [sulforidazine],81,-1.33
CCOC(=O)CN[C@@H](C(=O)N1CC[C@H]1C(=O)NCc1ccc(/C(N)=N\O)cc1)C1CCCCC1 [ximelagatran],88,-0.617
C/C(=C(/CCOC(=O)c1ccccc1)SC(=O)c1ccccc1)N(C=O)Cc1cnc(C)nc1N [bentiamine],84.1,-1.94
CCOC(=O)C1=C[C@@H](OC(CC)CC)[C@H](NC(C)=O)[C@@H](N)C1 [oseltamivir],72.1,-4.82
CN1CCC[C@@H]1CCO[C@](C)(c1ccccc1)c1ccc(Cl)cc1 [Clemastine],78.5,-4.63
CCC(C(=O)OCCN1CCOC(c2ccccc2)C1C)c1ccccc1 (stereo not given) [fenbutrazate],74.9,-1.9
O=C(c1ccccc1)c1ccc2n1CCC2C(=O)O (stereo not given),118,2.52

# Quoted at random: 3 records from the list, in no set order.
Compound,mCherry [1] [%],percent effect [2] [%]
CN1CCC[C@@H]1CCO[C@](C)(c1ccccc1)c1ccc(Cl)cc1 [Clemastine],78.5,-4.63
CN1CCCCC1CCN1c2ccccc2Sc2ccc(S(C)(=O)=O)cc21 (stereo not given) [sulforidazine],81,-1.33
O=C(c1ccccc1)c1ccc2n1CCC2C(=O)O (stereo not given),118,2.52

# Next entries.

Compound,mCherry [1] [%],percent effect [2] [%]
Cc1ccc(F)cc1C(=O)Nc1ccc(C(=O)N2Cc3cccn3Cc3ccccc32)c(Cl)c1 [lixivaptan],39.4,-5.08
O=S(=O)(O)c1cc(I)c(O)c2ncccc12,110,3.45
CCCC1([C@H](O)C/C=C/[C@H]2[C@H](O)CC(=O)[C@@H]2CCCCCCC(=O)OC)CCC1 [(R)-Butaprost],115,-1.64
CC=CC(=O)N(CC)c1ccccc1C [crotamiton],105,-3.86
CCOC(=O)[C@H](CCc1ccccc1)N[C@H]1CCc2ccccc2N(CC(=O)O)C1=O,110,-9.26
N=C(N)c1ccc(OCCCCCCOc2ccc(C(=N)N)cc2)cc1 [hexamidine],36.5,7.8
COc1ccc(/C=C/C(=O)c2ccc(OC)cc2OC)cc1 [metochalcone],93.2,-5.38
CO[C@@H]1[C@@H](OC(N)=O)[C@@H](O)[C@H](Oc2ccc3c(O)c(NC(=O)c4ccc(O)c(CC=C(C)C)c4)c(=O)oc3c2C)OC1(C)C [novobiocin],81.3,-7.79
NC(=O)NC(=O)Cc1ccccc1 [phenacemide],79.6,-0.352
C#C[C@]1(OC(C)=O)CC[C@H]2[C@@H]3CCC4=C[C@@H](OC(C)=O)CC[C@@H]4[C@H]3CC[C@@]21C [Etynodiol],111,-4.28
NS(=O)(=O)c1ccc(N2CCCCS2(=O)=O)cc1 [sultiame],107,-10.3
CCOC(=O)/C=C(C)/C=C/C=C(C)/C=C/c1c(C)cc(OC)c(C)c1C [etretinate],60.4,0.139
Nc1ccc(S(=O)(=O)Nc2ccc(Cl)nn2)cc1 [sulfachlorpyridazine],125,-0.0939
CCN(CC)Cc1cc(Nc2ccnc3cc(Cl)ccc23)ccc1O,104,0.237
CCCCCOC(=O)c1ccc(N(C)C)cc1 [padimate],102,-22.7
CCCc1nc(C)c2c(=O)nc(-c3cc(S(=O)(=O)N4CCN(CC)CC4)ccc3OCC)[nH]n12 [vardenafil],93.7,-0.752
CC(C(O)c1ccc(O)cc1)N1CCC(Cc2ccccc2)CC1 (stereo not given) [Ifenprodil tartrate],100,2.87
